Measured values: the supplement of paper PMC10849652
The list shows a part of the results.

The chains behind the UniProt entries cited, without tags or fusion partners. Where a name states a change or a piece, a line headed by the entry shows the natural chain unless it says otherwise.
UniProt Q99733: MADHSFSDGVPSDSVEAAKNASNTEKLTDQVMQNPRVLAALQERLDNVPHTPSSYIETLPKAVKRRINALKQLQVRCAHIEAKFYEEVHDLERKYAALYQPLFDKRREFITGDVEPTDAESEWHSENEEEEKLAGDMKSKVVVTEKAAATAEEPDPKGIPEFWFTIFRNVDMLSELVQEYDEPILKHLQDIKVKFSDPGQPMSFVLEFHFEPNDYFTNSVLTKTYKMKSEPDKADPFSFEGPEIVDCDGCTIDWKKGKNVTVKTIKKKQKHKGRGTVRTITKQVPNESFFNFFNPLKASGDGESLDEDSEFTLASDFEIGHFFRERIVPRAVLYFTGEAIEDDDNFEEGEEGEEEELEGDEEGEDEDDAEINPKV
UniProt Q96NT1: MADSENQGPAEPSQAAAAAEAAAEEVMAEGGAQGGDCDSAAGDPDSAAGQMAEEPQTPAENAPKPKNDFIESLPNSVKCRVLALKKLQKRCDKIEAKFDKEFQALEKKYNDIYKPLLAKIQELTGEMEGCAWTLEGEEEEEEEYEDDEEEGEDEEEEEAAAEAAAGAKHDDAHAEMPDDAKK
UniProt P54920: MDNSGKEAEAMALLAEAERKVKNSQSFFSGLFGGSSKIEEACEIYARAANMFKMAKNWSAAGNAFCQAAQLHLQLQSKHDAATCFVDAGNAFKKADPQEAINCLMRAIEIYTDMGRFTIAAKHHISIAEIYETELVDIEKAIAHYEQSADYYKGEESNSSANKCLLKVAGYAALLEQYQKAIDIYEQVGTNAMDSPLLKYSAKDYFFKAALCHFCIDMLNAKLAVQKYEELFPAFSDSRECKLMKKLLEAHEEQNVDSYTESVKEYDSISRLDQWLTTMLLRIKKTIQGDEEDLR
UniProt Q14CX7, whole entry, looked up: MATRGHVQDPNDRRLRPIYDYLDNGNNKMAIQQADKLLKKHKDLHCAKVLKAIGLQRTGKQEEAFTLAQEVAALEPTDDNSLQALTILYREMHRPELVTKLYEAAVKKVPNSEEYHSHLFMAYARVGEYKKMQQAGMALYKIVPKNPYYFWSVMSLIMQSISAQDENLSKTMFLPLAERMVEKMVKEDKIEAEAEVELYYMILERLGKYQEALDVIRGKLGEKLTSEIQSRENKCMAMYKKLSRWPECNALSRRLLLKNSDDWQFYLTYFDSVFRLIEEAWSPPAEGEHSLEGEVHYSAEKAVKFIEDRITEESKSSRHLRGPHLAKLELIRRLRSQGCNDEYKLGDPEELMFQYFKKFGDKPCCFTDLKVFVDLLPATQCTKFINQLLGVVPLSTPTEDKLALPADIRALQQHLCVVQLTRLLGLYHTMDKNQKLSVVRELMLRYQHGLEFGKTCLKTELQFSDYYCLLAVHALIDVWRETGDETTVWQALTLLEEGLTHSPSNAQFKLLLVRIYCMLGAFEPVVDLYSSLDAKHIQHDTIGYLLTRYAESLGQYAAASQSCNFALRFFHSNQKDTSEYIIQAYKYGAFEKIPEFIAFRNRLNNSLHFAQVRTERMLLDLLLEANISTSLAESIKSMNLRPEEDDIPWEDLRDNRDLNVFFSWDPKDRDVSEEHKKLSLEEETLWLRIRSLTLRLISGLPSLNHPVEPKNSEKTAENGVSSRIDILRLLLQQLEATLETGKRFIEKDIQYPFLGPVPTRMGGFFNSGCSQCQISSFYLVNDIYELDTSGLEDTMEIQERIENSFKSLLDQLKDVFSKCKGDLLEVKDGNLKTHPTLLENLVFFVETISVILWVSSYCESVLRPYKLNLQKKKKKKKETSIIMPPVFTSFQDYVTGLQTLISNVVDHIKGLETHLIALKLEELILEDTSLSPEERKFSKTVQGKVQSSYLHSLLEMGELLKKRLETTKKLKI
UniProt Q6N069: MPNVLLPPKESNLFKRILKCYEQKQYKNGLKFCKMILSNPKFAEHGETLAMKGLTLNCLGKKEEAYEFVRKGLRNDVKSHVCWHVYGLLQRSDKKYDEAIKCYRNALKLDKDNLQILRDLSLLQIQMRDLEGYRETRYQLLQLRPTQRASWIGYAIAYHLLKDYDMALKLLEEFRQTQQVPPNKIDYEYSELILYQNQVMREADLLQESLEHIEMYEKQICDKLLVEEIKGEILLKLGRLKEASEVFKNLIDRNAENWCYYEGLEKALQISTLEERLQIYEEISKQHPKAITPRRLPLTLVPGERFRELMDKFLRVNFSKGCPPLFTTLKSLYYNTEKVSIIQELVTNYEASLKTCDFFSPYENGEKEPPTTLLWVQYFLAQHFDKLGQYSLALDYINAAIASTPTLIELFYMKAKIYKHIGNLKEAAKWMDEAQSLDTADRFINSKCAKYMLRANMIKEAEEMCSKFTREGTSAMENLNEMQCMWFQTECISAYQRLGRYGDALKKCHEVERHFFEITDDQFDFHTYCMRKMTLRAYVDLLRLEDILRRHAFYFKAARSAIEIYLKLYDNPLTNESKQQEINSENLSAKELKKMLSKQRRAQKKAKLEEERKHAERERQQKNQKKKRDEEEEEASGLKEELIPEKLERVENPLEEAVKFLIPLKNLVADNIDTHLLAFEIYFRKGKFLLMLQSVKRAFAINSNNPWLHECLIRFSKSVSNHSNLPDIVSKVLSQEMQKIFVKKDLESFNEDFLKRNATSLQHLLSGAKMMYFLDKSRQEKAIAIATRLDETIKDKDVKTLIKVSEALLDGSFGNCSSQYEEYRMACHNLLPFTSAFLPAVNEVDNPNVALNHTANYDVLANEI
UniProt Q4G0N4: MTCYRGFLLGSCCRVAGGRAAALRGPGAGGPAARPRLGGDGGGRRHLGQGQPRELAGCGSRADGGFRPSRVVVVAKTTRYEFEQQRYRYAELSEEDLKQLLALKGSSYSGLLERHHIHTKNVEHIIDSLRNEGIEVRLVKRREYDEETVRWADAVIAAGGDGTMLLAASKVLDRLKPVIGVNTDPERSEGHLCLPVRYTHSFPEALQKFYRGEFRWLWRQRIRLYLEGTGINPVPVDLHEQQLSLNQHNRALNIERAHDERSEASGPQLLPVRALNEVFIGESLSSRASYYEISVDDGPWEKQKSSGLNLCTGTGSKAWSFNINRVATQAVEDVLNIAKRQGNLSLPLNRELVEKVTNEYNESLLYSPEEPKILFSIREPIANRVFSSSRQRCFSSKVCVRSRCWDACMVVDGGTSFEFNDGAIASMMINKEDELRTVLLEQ
UniProt Q9UJ70, whole entry, looked up: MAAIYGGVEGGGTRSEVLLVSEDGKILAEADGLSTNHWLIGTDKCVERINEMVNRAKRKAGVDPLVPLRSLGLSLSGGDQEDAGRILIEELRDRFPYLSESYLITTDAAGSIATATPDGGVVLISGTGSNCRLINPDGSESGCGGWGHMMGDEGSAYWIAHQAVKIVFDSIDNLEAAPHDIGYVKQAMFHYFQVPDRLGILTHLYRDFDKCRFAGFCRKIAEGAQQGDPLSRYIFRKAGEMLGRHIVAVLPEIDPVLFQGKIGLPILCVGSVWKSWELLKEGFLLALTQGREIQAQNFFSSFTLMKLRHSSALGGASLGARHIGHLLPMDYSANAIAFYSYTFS
UniProt Q9UHQ1: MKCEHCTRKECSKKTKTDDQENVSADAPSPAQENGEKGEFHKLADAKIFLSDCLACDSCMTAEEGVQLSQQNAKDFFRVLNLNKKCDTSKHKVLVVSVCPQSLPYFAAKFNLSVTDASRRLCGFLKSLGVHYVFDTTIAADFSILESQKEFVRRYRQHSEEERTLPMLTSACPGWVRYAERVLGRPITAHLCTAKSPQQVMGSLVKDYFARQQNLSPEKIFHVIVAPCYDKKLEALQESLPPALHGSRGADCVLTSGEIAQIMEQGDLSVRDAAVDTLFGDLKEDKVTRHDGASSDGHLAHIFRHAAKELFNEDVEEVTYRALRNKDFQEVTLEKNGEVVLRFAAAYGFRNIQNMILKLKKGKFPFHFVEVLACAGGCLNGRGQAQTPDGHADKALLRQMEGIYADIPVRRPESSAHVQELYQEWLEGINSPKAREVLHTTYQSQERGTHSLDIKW
UniProt Q69YL0: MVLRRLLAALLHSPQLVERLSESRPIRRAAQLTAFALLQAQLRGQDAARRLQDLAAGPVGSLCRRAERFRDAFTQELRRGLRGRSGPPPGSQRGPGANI
UniProt Q9P032: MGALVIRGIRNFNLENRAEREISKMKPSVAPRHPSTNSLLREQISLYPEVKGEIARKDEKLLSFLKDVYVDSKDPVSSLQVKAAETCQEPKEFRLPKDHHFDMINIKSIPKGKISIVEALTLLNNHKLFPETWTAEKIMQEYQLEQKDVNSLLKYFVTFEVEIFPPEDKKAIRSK
UniProt Q15843, whole entry, looked up: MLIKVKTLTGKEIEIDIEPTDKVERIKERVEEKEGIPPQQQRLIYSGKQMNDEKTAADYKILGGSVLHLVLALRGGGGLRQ
UniProt O14777: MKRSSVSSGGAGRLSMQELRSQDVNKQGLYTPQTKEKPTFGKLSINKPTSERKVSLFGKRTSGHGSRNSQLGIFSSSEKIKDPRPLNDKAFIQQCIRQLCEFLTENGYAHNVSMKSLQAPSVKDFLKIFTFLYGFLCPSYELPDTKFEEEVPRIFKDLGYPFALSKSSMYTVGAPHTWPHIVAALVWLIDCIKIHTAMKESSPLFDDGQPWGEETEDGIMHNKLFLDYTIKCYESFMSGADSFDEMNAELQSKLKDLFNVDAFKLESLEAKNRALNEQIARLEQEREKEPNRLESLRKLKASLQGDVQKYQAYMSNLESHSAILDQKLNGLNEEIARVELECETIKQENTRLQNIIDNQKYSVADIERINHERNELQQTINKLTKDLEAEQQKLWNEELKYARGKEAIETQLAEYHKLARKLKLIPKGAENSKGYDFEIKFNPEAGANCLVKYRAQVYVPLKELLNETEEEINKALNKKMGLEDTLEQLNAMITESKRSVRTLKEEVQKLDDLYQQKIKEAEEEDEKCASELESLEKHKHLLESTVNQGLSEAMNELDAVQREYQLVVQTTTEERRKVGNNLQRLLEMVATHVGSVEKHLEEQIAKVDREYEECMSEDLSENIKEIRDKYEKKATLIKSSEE
UniProt Q96HR8: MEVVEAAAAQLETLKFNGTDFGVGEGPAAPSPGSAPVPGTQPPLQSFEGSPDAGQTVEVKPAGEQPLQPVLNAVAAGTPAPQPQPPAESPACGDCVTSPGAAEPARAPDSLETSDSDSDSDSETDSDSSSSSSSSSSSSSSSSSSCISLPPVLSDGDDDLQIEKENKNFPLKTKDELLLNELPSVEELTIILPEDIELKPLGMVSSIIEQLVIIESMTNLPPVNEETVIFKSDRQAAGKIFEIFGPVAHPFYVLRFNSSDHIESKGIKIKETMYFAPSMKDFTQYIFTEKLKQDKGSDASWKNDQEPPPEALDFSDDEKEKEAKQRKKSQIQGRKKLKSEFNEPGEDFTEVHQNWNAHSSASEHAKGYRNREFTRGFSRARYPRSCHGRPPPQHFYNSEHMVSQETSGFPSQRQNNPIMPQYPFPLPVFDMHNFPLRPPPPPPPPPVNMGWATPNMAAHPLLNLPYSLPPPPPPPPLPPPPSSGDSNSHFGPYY
UniProt Q9BT67: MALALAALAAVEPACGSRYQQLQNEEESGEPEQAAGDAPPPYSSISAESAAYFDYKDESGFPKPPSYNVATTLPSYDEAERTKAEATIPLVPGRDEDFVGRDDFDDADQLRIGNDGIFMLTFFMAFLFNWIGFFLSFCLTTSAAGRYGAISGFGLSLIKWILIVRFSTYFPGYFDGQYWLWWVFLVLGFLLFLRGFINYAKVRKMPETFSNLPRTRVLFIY
UniProt O75113: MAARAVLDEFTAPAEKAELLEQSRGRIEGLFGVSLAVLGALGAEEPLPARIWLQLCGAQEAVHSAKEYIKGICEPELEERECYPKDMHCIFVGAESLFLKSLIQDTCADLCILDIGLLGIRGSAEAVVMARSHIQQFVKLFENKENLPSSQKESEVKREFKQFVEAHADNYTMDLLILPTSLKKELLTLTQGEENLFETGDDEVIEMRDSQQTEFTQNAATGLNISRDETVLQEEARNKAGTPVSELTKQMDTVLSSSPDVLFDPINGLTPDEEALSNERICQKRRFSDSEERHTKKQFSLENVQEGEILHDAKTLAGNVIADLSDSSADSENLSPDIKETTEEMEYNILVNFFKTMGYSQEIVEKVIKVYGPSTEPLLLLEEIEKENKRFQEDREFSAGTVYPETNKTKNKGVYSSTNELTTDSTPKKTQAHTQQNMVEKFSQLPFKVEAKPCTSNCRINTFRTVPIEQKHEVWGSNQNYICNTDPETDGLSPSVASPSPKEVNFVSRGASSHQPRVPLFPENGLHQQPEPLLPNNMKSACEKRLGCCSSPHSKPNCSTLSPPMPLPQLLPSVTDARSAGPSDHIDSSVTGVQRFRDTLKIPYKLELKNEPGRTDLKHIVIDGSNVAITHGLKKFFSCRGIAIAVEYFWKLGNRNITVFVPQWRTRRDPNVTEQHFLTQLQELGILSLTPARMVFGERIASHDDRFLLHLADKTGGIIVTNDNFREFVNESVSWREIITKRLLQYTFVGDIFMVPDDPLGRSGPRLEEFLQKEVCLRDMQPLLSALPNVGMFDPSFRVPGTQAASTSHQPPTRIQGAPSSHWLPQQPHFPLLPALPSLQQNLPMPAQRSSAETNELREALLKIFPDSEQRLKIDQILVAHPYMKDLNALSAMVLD

Key:
Experiment in all cases: log2 fold change, soluble protein after heating vs DMSO (PISA); higher = thermal stabilisation; K562 cells, 10 uM, 30 min; active = over 0.2 and 3.5 SD of the protein, either way, in both replicates (recomputed)
saracatinib = compound: CN1CCN(CCOc2cc(OC3CCOCC3)c3c(Nc4c(Cl)ccc5c4OCO5)ncnc3c2)CC1 [saracatinib]
Method in brief: (§1)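 Values are thermal stability changes relative to control samples and are taken from duplicates. They are stated as log2 fold changes. Before quantification by TMTpro 16plex LC-MS/MS with equalised channel sums, K562 cells at 2×10^6 cells/mL were treated with 10 μM compound for 30 min, heated in aliquots for 3 min across 48°C-58°C, pooled, extracted in PBS with 0.5% NP-40 at 4°C, and centrifuged at 21,000xg for 90 min to give the soluble supernatant.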

sotrastaurin = compound: CN1CCN(c2nc(C3=C(c4c[nH]c5ccccc45)C(=O)NC3=O)c3ccccc3n2)CC1 [sotrastaurin]
Method in brief: as §1

alvocidib = compound: CN1CC[C@H](c2c(O)cc(O)c3c(=O)cc(-c4ccccc4Cl)oc23)[C@H](O)C1 [alvocidib]
Method in brief: as §1

Tubastatin A = compound: CN1CCc2c(c3ccccc3n2Cc2ccc(C(=O)NO)cc2)C1 [Tubastatin A]
Method in brief: as §1

[1] = compound: CNC(=O)C1=CC=CC=C1NC2=NC(=NC=C2Cl)NC3=C(C=C(C=C3)N4CCOCC4)OC
Method in brief: as §1

defactinib = compound: CNC(=O)c1ccc(Nc2ncc(C(F)(F)F)c(NCc3nccnc3N(C)S(C)(=O)=O)n2)cc1 [defactinib]
Method in brief: as §1

rucaparib = compound: CNCc1ccc(-c2[nH]c3cc(F)cc4c3c2CCNC4=O)cc1 [rucaparib]
Method in brief: as §1

[2] = compound: CNc1nc(-c2ccc3c(N)n[nH]c3c2)cc(N2C[C@@H](C(=O)NC3CCCCC3)CC[C@H]2C)n1
Method in brief: as §1

encorafenib = compound: COC(=O)N[C@@H](C)CNc1nccc(-c2cn(C(C)C)nc2-c2cc(Cl)cc(NS(C)(=O)=O)c2F)n1 [encorafenib]
Method in brief: as §1

[3] = compound: COC(=O)[C@H](CCSC)NC(=O)C1=C(C=C(C=C1)NC[C@H](CS)N)C2=CC=CC=C2
Method in brief: as §1

Measured: log2 fold change

NDUFC2 (UniProt O95298)
inactive: saracatinib 0.046 | sotrastaurin -0.019 | alvocidib 0.038 | Tubastatin A -0.073 | [1] 0.04 | defactinib 0.015 | rucaparib -0.142 | [2] -0.021 | encorafenib 0.054 | [3] -0.001

NDUFAF5 (UniProt Q5TEU4)
inactive: saracatinib 0.029 | sotrastaurin -0.012 | alvocidib -0.077 | Tubastatin A -0.053 | [1] -0.001 | defactinib -0.013 | rucaparib -0.04 | [2] -0.046 | encorafenib 0.077 | [3] -0.016

NAP1L4 isoform 2 (UniProt Q99733)
inactive: saracatinib 0.011 | sotrastaurin 0 | alvocidib 0.002 | Tubastatin A -0.036 | [1] 0.003 | defactinib -0.02 | rucaparib -0.017 | [2] -0.037 | encorafenib 0.016 | [3] 0.005

NAP1L5 (UniProt Q96NT1)
inactive: saracatinib 0.066 | sotrastaurin 0.033 | alvocidib 0.043 | Tubastatin A 0.027 | [1] -0.014 | defactinib -0.081 | rucaparib -0.217 | [2] -0.064 | encorafenib 0.004 | [3] 0.012

NAPA (UniProt P54920)
inactive: saracatinib 0.029 | sotrastaurin -0.04 | alvocidib -0.067 | Tubastatin A 0.003 | [1] 0.027 | defactinib -0.063 | rucaparib -0.068 | [2] -0.032 | encorafenib 0.028 | [3] -0.008

NAA25 (UniProt Q14CX7)
inactive: saracatinib -0.004 | sotrastaurin 0.028 | alvocidib -0.144 | Tubastatin A 0.039 | [1] 0.018 | defactinib -0.065 | rucaparib -0.035 | [2] 0.009 | encorafenib 0.01 | [3] -0.009

NDUFA11 (UniProt Q86Y39)
inactive: saracatinib 0.07 | sotrastaurin 0.073 | alvocidib -0.026 | Tubastatin A -0.079 | [1] 0.02 | defactinib -0.068 | rucaparib -0.098 | [2] -0.018 | encorafenib 0 | [3] -0.006

NDRG2 (UniProt Q9UN36)
inactive: saracatinib 0.012 | sotrastaurin -0.027 | alvocidib -0.035 | Tubastatin A -0.008 | [1] -0.015 | defactinib -0.088 | rucaparib -0.093 | [2] 0.005 | encorafenib 0.013 | [3] 0.04

NDUFA8 (UniProt P51970)
inactive: saracatinib -0.022 | sotrastaurin 0.009 | alvocidib -0.003 | Tubastatin A -0.014 | [1] 0.044 | defactinib -0.033 | rucaparib -0.034 | [2] -0.046 | encorafenib 0.005 | [3] 0.086

NAT10 (UniProt Q9H0A0)
inactive: saracatinib -0.043 | sotrastaurin -0.031 | alvocidib 0.318 | Tubastatin A 0.094 | [1] -0.166 | defactinib 0.382 | rucaparib 0.346 | [2] 0.182 | encorafenib 0.14 | [3] -0.02

NAA16 (UniProt Q6N069)
inactive: saracatinib 0.001 | sotrastaurin 0.016 | alvocidib -0.126 | Tubastatin A 0.052 | [1] -0.036 | defactinib -0.166 | rucaparib 0.054 | [2] -0.015 | encorafenib 0.012 | [3] -0.013

NADK2 (UniProt Q4G0N4)
inactive: saracatinib 0.051 | sotrastaurin 0.073 | alvocidib -0.003 | Tubastatin A -0.046 | [1] -0.017 | defactinib -0.009 | rucaparib 0.023 | [2] -0.037 | encorafenib -0.006 | [3] 0.001

NAE1 (UniProt Q13564)
inactive: saracatinib 0.007 | sotrastaurin -0.032 | alvocidib -0.094 | Tubastatin A 0.05 | [1] 0.008 | defactinib -0.057 | rucaparib -0.025 | [2] 0.052 | encorafenib 0.026 | [3] -0.026

NAGK isoform 2 (UniProt Q9UJ70)
inactive: saracatinib 0.037 | sotrastaurin 0.012 | alvocidib 0.009 | Tubastatin A 0.013 | [1] -0.027 | defactinib -0.042 | rucaparib -0.003 | [2] -0.012 | encorafenib -0.043 | [3] 0.022

NDUFAF3 (UniProt Q9BU61)
inactive: saracatinib 0.105 | sotrastaurin -0.042 | alvocidib -0.099 | Tubastatin A -0.012 | [1] -0.002 | defactinib 0.023 | rucaparib -0.035 | [2] 0.031 | encorafenib -0.003 | [3] -0.008

NARF (UniProt Q9UHQ1)
inactive: saracatinib 0.05 | sotrastaurin 0 | alvocidib -0.006 | Tubastatin A -0.016 | [1] 0.024 | defactinib -0.056 | rucaparib -0.036 | [2] -0.031 | encorafenib 0.093 | [3] 0.021

NAA11 (UniProt Q9BSU3)
inactive: saracatinib 0.033 | sotrastaurin -0.247 | Tubastatin A 0.035 | [1] -0.078 | defactinib -0.132 | rucaparib 0.135 | [2] -0.133 | encorafenib 0.022 | [3] 0.034

Reprinted from the listing (2 entries):
NARF (UniProt Q9UHQ1)
inactive: saracatinib 0.05 | sotrastaurin 0 | alvocidib -0.006 | Tubastatin A -0.016 | [1] 0.024 | defactinib -0.056 | rucaparib -0.036 | [2] -0.031 | encorafenib 0.093 | [3] 0.021

NAA11 (UniProt Q9BSU3)
inactive: saracatinib 0.033 | sotrastaurin -0.247 | Tubastatin A 0.035 | [1] -0.078 | defactinib -0.132 | rucaparib 0.135 | [2] -0.133 | encorafenib 0.022 | [3] 0.034

Later entries

NEBL (UniProt O76041)
inactive: saracatinib 0.136 | sotrastaurin 0.022 | alvocidib 0.058 | Tubastatin A 0.094 | [1] 0.024 | defactinib -0.013 | rucaparib -0.053 | [2] 0.015 | encorafenib -0.024 | [3] 0.182

NCBP2AS2 (UniProt Q69YL0)
inactive: saracatinib 0.056 | sotrastaurin 0.215 | Tubastatin A -0.064 | [1] -0.005 | defactinib 0.013 | rucaparib -0.03 | [2] -0.081 | encorafenib 0.031 | [3] 0.031

NDUFS8 (UniProt O00217)
inactive: saracatinib -0.011 | sotrastaurin -0.061 | Tubastatin A -0.04 | [1] -0.037 | defactinib -0.009 | rucaparib -0.093 | [2] 0.017 | encorafenib 0.059 | [3] -0.026

NDUFAF4 (UniProt Q9P032)
inactive: saracatinib -0.016 | sotrastaurin 0 | alvocidib -0.047 | Tubastatin A -0.019 | [1] -0.01 | defactinib -0.025 | rucaparib -0.015 | [2] -0.026 | encorafenib 0.003 | [3] 0.014

NEDD8 (UniProt Q15843)
inactive: saracatinib 0 | sotrastaurin 0.027 | alvocidib -0.094 | Tubastatin A 0.057 | [1] -0.039 | defactinib -0.041 | rucaparib -0.01 | [2] -0.017 | encorafenib -0.01 | [3] -0.063

NAA30 (UniProt Q147X3)
inactive: saracatinib 0.013 | sotrastaurin 0.063 | alvocidib 0.011 | Tubastatin A 0.019 | [1] -0.028 | defactinib -0.055 | rucaparib 0.052 | [2] 0.034 | encorafenib -0.036 | [3] -0.017

NAMPT (UniProt C9JF35)
inactive: saracatinib 0.105 | sotrastaurin 0.059 | alvocidib 0.011 | Tubastatin A -0.07 | [1] 0.122 | rucaparib -0.277 | [2] -0.081 | encorafenib 0.025

NDC80 (UniProt O14777)
inactive: saracatinib -0.124 | sotrastaurin -0.049 | alvocidib 0.105 | Tubastatin A 0.11 | [1] 0.024 | defactinib 0.09 | rucaparib 0.537 | [2] 0.018 | encorafenib 0.335 | [3] -0.05

NAF1 (UniProt Q96HR8)
inactive: saracatinib 0.097 | sotrastaurin 0.048 | alvocidib 0.014 | Tubastatin A 0.007 | [1] -0.041 | defactinib 0.014 | rucaparib 0.032 | [2] 0.024 | encorafenib 0.011 | [3] 0.015

NCK2 (UniProt O43639)
inactive: saracatinib -0.056 | sotrastaurin 0 | alvocidib -0.043 | Tubastatin A 0.191 | defactinib -0.227 | rucaparib 0.125 | [2] 0.017 | encorafenib 0.055 | [3] -0.32

NDFIP1 (UniProt Q9BT67)
inactive: saracatinib -0.274 | sotrastaurin -0.028 | Tubastatin A 0.056 | [1] 0.124 | defactinib 0.015 | rucaparib 0.286 | [2] -0.187 | encorafenib -0.001 | [3] -0.115

N4BP1 (UniProt O75113)
inactive: saracatinib 0.03 | sotrastaurin -0.083 | alvocidib -0.041 | Tubastatin A 0.131 | [1] 0.111 | defactinib -0.089 | rucaparib 0.004 | [2] 0.026 | encorafenib -0.034 | [3] -0.113

NEFH (UniProt P12036)
inactive: saracatinib -0.11 | sotrastaurin -0.209 | alvocidib 0.105 | Tubastatin A -0.027 | [1] 0 | defactinib 0.113 | rucaparib 0.031 | [2] -0.094 | encorafenib 0.189 | [3] 0.033
